{"source": "PubChem BioAssay AID1259272 | Sanger Institute | 2017", "purpose": "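Find kinases needed for SW1116 growth and partners for drug combinations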 (primary screen)", "system": "SW1116 human colorectal cancer cells", "reagent": "siRNA pool against human genes", "challenge": "anchor drugs BYL719 (1 µM), cetuximab (5 µg/ml) or trametinib (10 nM), or DMSO vehicle; exposure length not given", "measured": "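Replicate-averaged viability versus control-pool wells, with a robust z-score for siRNA alone and a per-drug synergy score (BYL719, cetuximab, trametinib)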", "direction": "viability z-score, no drug: higher = more cells remaining; strongly negative means essential gene; viability, no drug: higher = more viable cells", "units": "viability, no drug in fraction of control", "hit rule": "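Called essential if the drug-free knock-down gives a robust viability z-score below -3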", "meaning of the calls": "active = essential (knock-down alone); inactive = no change", "note": "In all, the deposit lists 794 reagents; this is a random part of them. Over the whole deposit, 7 (0.88%) were called active. 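Essential calls reflect knock-down without drug only, not synergy with drugs; drug exposure length not given.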 Entries without a mark were called inactive. No viability above 1 is reported: the scale is capped. Further read-outs or replicates are left out here. Not given: the amount of reagent, the time to read-out."}
{"Gene":"TK2 (thymidine kinase 2)","viability z-score, no drug":0.842,"viability, no drug":1}
{"Gene":"LRRK2 (leucine rich repeat kinase 2)","viability z-score, no drug":0.824,"viability, no drug":0.998}
{"Gene":"PRKD2 (protein kinase D2)","viability z-score, no drug":0.842,"viability, no drug":1}
{"Gene":"FOXP1 (forkhead box P1)","viability z-score, no drug":-1.01,"viability, no drug":0.803}
{"Gene":"TESK1 (testis associated actin remodelling kinase 1)","viability z-score, no drug":0.842,"viability, no drug":1}
{"Gene":"BCR (BCR activator of RhoGEF and GTPase)","viability z-score, no drug":0.842,"viability, no drug":1}
{"Gene":"EPHA1 (EPH receptor A1)","viability z-score, no drug":0.842,"viability, no drug":1}
{"Gene":"PI4K2A (phosphatidylinositol 4-kinase type 2 alpha)","viability z-score, no drug":0.842,"viability, no drug":1}
{"Gene":"EEF2K (eukaryotic elongation factor 2 kinase)","viability z-score, no drug":-2.81,"viability, no drug":0.611}
{"Gene":"EPHA3 (EPH receptor A3)","viability z-score, no drug":0.842,"viability, no drug":1}
{"Gene":"GRK6 (G protein-coupled receptor kinase 6)","viability z-score, no drug":0.842,"viability, no drug":1}
{"Gene":"HIPK2 (homeodomain interacting protein kinase 2)","viability z-score, no drug":0.842,"viability, no drug":1}
{"Gene":"PIP4K2B (phosphatidylinositol-5-phosphate 4-kinase type 2 beta)","viability z-score, no drug":0.134,"viability, no drug":0.925}
{"Gene":"SGK2 (serum/glucocorticoid regulated kinase 2)","viability z-score, no drug":-0.288,"viability, no drug":0.88}
{"Gene":"MPP3 (MAGUK p55 scaffold protein 3)","viability z-score, no drug":"-3.47 (active)","viability, no drug":0.541}
{"Gene":"CDKN1C (cyclin dependent kinase inhibitor 1C)","viability z-score, no drug":0.842,"viability, no drug":1}
{"Gene":"TGFBR1 (transforming growth factor beta receptor 1)","viability z-score, no drug":-0.531,"viability, no drug":0.854}
{"Gene":"PGK1 (phosphoglycerate kinase 1)","viability z-score, no drug":0.842,"viability, no drug":1}
{"Gene":"TAB1 (TGF-beta activated kinase 1 (MAP3K7) binding protein 1)","viability z-score, no drug":0.842,"viability, no drug":1}
{"Gene":"TNIK (TRAF2 and NCK interacting kinase)","viability z-score, no drug":-0.656,"viability, no drug":0.84}
{"Gene":"POMK (protein O-mannose kinase)","viability z-score, no drug":0.303,"viability, no drug":0.943}
{"Gene":"MST1R (macrophage stimulating 1 receptor)","viability z-score, no drug":0.842,"viability, no drug":1}
{"Gene":"TEK (TEK receptor tyrosine kinase)","viability z-score, no drug":0.842,"viability, no drug":1}
{"Gene":"MYH10 (myosin heavy chain 10)","viability z-score, no drug":0.33,"viability, no drug":0.945}
{"Gene":"PAPSS1 (3'-phosphoadenosine 5'-phosphosulfate synthase 1)","viability z-score, no drug":0.842,"viability, no drug":1}
{"Gene":"KIT (KIT proto-oncogene, receptor tyrosine kinase)","viability z-score, no drug":0.842,"viability, no drug":1}
{"Gene":"VRK1 (VRK serine/threonine kinase 1)","viability z-score, no drug":0.842,"viability, no drug":1}
{"Gene":"LMTK2 (lemur tail kinase 2)","viability z-score, no drug":-0.847,"viability, no drug":0.82}
{"Gene":"MYO3A (myosin IIIA)","viability z-score, no drug":-1.44,"viability, no drug":0.757}
{"Gene":"PRAG1 (PEAK1 related, kinase-activating pseudokinase 1)","viability z-score, no drug":-2.45,"viability, no drug":0.649}
{"Gene":"CKMT1B (creatine kinase, mitochondrial 1B)","viability z-score, no drug":-0.849,"viability, no drug":0.82}
{"Gene":"BRD3 (bromodomain containing 3)","viability z-score, no drug":0.275,"viability, no drug":0.94}
{"Gene":"DCLK3 (doublecortin like kinase 3)","viability z-score, no drug":0.507,"viability, no drug":0.964}
{"Gene":"NTRK2 (neurotrophic receptor tyrosine kinase 2)","viability z-score, no drug":0.224,"viability, no drug":0.934}
{"Gene":"CAD","viability z-score, no drug":0.791,"viability, no drug":0.995}
{"Gene":"FGFR4 (fibroblast growth factor receptor 4)","viability z-score, no drug":0.842,"viability, no drug":1}
